Measurements taken from paper PMC4253439.
No constants are given. Whether binding was seen depends on the method and setting. Binding seen in cells or lysates may run through a third protein. Some entries that bind do so weakly or less than the wild type.

Chains of the proteins cited; added tags and fusions are not shown.
UniProt P08047: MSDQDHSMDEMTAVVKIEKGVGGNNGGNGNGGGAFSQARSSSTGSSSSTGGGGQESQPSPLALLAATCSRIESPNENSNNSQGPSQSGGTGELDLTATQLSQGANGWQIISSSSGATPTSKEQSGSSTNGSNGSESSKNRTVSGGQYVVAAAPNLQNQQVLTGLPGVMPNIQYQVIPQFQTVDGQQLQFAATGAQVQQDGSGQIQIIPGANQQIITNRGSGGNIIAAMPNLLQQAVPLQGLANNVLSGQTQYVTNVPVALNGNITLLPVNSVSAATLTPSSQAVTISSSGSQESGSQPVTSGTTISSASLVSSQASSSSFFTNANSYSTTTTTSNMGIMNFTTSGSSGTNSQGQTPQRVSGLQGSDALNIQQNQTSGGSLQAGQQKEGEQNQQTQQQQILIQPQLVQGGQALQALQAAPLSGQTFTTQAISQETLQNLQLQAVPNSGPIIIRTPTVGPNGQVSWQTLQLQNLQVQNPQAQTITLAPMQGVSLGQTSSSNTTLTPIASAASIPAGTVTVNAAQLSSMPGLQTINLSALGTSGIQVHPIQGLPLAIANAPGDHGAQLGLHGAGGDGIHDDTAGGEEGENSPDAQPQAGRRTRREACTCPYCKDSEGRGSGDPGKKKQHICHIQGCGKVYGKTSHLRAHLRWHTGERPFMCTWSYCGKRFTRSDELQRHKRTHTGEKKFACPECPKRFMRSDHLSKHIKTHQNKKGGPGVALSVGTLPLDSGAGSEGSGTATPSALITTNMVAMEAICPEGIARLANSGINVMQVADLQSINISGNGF
UniProt Q92793: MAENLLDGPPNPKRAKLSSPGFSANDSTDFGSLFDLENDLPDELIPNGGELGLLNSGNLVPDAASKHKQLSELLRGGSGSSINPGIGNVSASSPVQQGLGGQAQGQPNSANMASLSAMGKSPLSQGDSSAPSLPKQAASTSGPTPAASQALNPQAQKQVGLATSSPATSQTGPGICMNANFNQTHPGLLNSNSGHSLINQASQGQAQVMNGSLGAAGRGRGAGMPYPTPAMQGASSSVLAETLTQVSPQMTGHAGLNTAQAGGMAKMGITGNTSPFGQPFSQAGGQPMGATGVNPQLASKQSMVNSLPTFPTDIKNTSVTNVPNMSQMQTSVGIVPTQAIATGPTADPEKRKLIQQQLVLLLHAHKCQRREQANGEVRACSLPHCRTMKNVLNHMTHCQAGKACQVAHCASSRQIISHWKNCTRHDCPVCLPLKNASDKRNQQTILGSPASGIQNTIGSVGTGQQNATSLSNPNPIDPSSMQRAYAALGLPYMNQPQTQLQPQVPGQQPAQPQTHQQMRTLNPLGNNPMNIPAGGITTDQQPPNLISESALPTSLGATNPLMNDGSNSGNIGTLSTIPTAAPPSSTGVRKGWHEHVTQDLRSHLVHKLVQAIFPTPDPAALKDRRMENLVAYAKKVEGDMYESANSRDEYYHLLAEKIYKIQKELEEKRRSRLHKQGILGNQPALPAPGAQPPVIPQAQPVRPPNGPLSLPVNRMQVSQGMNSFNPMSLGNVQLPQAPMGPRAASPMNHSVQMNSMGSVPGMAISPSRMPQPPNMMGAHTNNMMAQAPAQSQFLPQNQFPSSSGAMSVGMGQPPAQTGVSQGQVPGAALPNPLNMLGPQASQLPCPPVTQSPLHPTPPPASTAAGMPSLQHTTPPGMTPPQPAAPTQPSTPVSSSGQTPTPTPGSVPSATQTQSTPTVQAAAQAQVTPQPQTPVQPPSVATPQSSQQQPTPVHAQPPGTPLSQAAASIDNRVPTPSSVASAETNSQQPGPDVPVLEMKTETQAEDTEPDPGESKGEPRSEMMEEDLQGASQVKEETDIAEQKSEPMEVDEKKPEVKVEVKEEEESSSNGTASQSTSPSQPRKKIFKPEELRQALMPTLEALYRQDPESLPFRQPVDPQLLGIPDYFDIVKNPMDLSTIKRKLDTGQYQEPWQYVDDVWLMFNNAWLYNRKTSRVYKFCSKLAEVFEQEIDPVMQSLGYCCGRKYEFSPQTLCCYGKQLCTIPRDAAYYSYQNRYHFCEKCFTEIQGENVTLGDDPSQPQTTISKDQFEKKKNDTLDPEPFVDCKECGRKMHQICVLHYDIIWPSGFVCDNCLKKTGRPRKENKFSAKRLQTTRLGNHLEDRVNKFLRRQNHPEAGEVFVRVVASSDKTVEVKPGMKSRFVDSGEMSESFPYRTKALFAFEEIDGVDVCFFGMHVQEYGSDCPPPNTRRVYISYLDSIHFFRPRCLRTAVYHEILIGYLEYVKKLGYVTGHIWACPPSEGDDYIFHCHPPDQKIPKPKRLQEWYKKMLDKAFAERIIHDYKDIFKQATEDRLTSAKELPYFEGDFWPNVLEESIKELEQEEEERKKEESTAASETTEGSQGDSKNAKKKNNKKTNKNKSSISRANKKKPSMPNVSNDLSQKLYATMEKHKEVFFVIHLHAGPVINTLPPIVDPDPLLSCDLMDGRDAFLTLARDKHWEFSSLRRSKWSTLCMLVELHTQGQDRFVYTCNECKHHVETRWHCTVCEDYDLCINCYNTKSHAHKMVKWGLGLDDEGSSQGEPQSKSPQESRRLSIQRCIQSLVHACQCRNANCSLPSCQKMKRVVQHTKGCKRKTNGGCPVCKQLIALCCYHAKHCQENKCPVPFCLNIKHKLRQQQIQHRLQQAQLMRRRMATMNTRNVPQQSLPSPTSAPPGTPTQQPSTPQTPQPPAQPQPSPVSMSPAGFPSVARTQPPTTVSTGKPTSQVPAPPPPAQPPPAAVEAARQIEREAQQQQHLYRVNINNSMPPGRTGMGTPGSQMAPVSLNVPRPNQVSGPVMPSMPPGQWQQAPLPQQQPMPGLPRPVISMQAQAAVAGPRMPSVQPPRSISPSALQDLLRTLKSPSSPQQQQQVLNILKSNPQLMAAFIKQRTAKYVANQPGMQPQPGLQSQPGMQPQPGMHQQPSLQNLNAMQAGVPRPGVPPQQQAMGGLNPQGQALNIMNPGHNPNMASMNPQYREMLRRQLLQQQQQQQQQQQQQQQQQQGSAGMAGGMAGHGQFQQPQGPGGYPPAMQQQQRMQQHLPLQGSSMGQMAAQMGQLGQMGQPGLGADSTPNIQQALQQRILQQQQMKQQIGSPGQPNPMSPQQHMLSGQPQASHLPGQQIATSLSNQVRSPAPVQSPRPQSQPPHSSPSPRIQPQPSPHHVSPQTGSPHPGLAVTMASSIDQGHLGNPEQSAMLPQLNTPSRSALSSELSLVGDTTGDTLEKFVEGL

Molecular target: specificity protein 1 (Sp1) (human (endogenous in HLF, HBE, H1299, A549)) (UniProt P08047)
Test: co-IP; nuclear extracts of HLF, HBE, H1299 and A549 cells incubated with an antibody against Sp1 or AP-2β for 24 h at 4°C, protein-A/G agarose beads 12 h at 4°C, washed with cold PBS; immunoblot for CBP

- binding: binds
Substance: CREB-binding protein (CBP) (from UniProt Q92793 1-2442)
